PubChem BioAssay AID1159578 – Peter MacCallum Cancer Centre | 2015
Purpose: 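siRNA pools altering how lymphatic endothelial cells close a scratch wound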 (primary screen). System: human lymphatic endothelial cells. Reagent: siRNA pool against human genes, 40 nM. Time to read-out: 48 h after transfection. Measurement: 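Cells stained with dye and imaged after a scratch; covered wound area and nuclei counted, duplicates averaged, migration set against mock wells and turned into a robust z-score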. Direction: migration robust z-score: higher = faster migration into the scratch; migration relative to mock: higher = more scratch area covered than mock; nuclei per well: higher = more cells in the well. Rule for the call: 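Migration changed when robust z exceeds 2 or falls below -2 and mean nuclei number is at least 3300; otherwise not called changed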. Meaning of the calls: active = migration changed; inactive = no migration change, or too few cells.
Shown is an unselected part of about 18,000 reagents tested. About 1,030 of all reagents (5.7%) were called active. 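Inactive calls also include pools with fewer than 3300 nuclei, whose migration was not assessed.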 Raw values vary from plate to plate and are shown uncorrected. A number with no mark means an inactive call. Reagent sequences are not shown.

Gene	migration robust z-score	migration class with cell-count check	migration relative to mock	nuclei per well, duplicate mean
CEP170 (centrosomal protein 170)	-1.37	migration z between -2 and 2; enough cells	0.53	4368
QSER1 (glutamine and serine rich 1)	-0.75	migration z between -2 and 2; enough cells	0.69	4584
GGA1	0	migration z between -2 and 2; enough cells	0.88	5934
IGFL4 (IGF like family member 4)	-1.5	migration z between -2 and 2; enough cells	0.5	5546
CALM3 (calmodulin 3)	0.08	under 3300 nuclei; migration not judged	0.82	3170
TSPAN11 (tetraspanin 11)	0.45	migration z between -2 and 2; enough cells	1	5731
RLIG1 (RNA 5'-phosphate and 3'-OH ligase 1)	-0.63	migration z between -2 and 2; enough cells	0.72	5596
SHROOM2 (shroom family member 2)	-0.34	migration z between -2 and 2; enough cells	0.74	4218
ZFP64 (ZFP64 zinc finger protein)	-0.08	migration z between -2 and 2; enough cells	0.86	3987
C4BPA (complement component 4 binding protein alpha)	-0.01	migration z between -2 and 2; enough cells	0.89	4789
EMILIN3 (elastin microfibril interfacer 3)	-0.59	migration z between -2 and 2; enough cells	0.73	3474
PEG10 (paternally expressed 10)	1.08	migration z between -2 and 2; enough cells	1.17	6357
GJC2 (gap junction protein gamma 2)	-0.99	migration z between -2 and 2; enough cells	0.62	3746
SLC2A12	-0.6	migration z between -2 and 2; enough cells	0.69	5859
ACTR3 (actin related protein 3)	-1.69	migration z between -2 and 2; enough cells	0.44	5748
ECSIT (ECSIT signaling integrator)	-1.15	migration z between -2 and 2; enough cells	0.59	6382
ZSCAN22 (zinc finger and SCAN domain containing 22)	-1.45	migration z between -2 and 2; enough cells	0.51	5870
ECD (ecdysoneless cell cycle regulator)	0.38	migration z between -2 and 2; enough cells	0.98	7107
ALG3 (ALG3 alpha-1,3- mannosyltransferase)	-0.25	migration z between -2 and 2; enough cells	0.82	6218
GUCY1A1 (guanylate cyclase 1 soluble subunit alpha 1)	-1.32	migration z between -2 and 2; enough cells	0.55	5104
SEPTIN10 (septin 10)	0.2	migration z between -2 and 2; enough cells	0.94	5276
SPINK8 (serine peptidase inhibitor Kazal type 8 (putative))	1.22	migration z between -2 and 2; enough cells	1.2	5768
SF3B2 (splicing factor 3b subunit 2)	-2.04 (active)	migration z below -2; enough cells	0.36	3972
TMEM53 (transmembrane protein 53)	1.7	migration z between -2 and 2; enough cells	1.33	5817
B2M (beta-2-microglobulin)	-0.2	migration z between -2 and 2; enough cells	0.76	4582
LMAN1L (lectin, mannose binding 1 like)	-0.89	migration z between -2 and 2; enough cells	0.66	5312
CTSB (cathepsin B)	1.38	migration z between -2 and 2; enough cells	1.07	5344
DBR1 (debranching RNA lariats 1)	-0.1	migration z between -2 and 2; enough cells	0.86	5919
CLDN15 (claudin 15)	-0.7	migration z between -2 and 2; enough cells	0.71	4412
TYROBP (transmembrane immune signaling adaptor TYROBP)	0.44	migration z between -2 and 2; enough cells	1	6924
FAU (FAU ubiquitin like and ribosomal protein S30 fusion)	-1.48	migration z between -2 and 2; enough cells	0.5	5575
PRR16 (proline rich 16)	0.32	migration z between -2 and 2; enough cells	0.97	5927
GON7 (GON7 subunit of KEOPS complex)	-0.2	migration z between -2 and 2; enough cells	0.84	5752
H1-2 (H1.2 linker histone, cluster member)	0.2	migration z between -2 and 2; enough cells	0.94	5744
SAFB (scaffold attachment factor B)	0.38	migration z between -2 and 2; enough cells	0.99	4197
CRBN (cereblon)	-3.11 (active)	migration z below -2; enough cells	0.2	5256
INPP4B (inositol polyphosphate-4-phosphatase type II B)	-1.04	migration z between -2 and 2; enough cells	0.6	6302
HRCT1 (histidine rich carboxyl terminus 1)	0.05	migration z between -2 and 2; enough cells	0.9	5134
UGT8 (UDP glycosyltransferase 8)	-0.08	migration z between -2 and 2; enough cells	0.86	7801
ESYT3 (extended synaptotagmin 3)	-0.6	migration z between -2 and 2; enough cells	0.73	5839
TIGD4 (tigger transposable element derived 4)	0.28	migration z between -2 and 2; enough cells	0.96	5832
PRKG1 (protein kinase cGMP-dependent 1)	-1.09	migration z between -2 and 2; enough cells	0.6	5356
MIPEP (mitochondrial intermediate peptidase)	1.14	migration z between -2 and 2; enough cells	1.02	5737
FASTKD3 (FASTK mitochondrial RNA regulator 3)	-0.23	migration z between -2 and 2; enough cells	0.83	5475
ZNF454 (zinc finger protein 454)	1.03	migration z between -2 and 2; enough cells	1.16	5090
GLTPD2 (glycolipid transfer protein domain containing 2)	-3.12 (active)	migration z below -2; enough cells	0.08	5774
IGFBP3 (insulin like growth factor binding protein 3)	-0.73	migration z between -2 and 2; enough cells	0.7	5799
USE1 (unconventional SNARE in the ER 1)	-0.46	migration z between -2 and 2; enough cells	0.77	4944
AMIGO3 (adhesion molecule with Ig like domain 3)	-1.56	migration z between -2 and 2; enough cells	0.48	5754
CHRND (cholinergic receptor nicotinic delta subunit)	-0.1	migration z between -2 and 2; enough cells	0.78	5650
CLC (Charcot-Leyden crystal galectin)	-0.08	migration z between -2 and 2; enough cells	0.79	5500
HDAC1 (histone deacetylase 1)	-1.9	migration z between -2 and 2; enough cells	0.44	4290
PIK3R3 (phosphoinositide-3-kinase regulatory subunit 3)	-0.65	migration z between -2 and 2; enough cells	0.68	4234
POLR1A (RNA polymerase I subunit A)	-0.05	migration z between -2 and 2; enough cells	0.8	5010
RPL23A (ribosomal protein L23a)	-2.77	under 3300 nuclei; migration not judged	0.17	2904
EP400 (E1A binding protein p400)	-0.04	migration z between -2 and 2; enough cells	0.88	4582
DPYD (dihydropyrimidine dehydrogenase)	0.11	migration z between -2 and 2; enough cells	0.92	7472
